Results published in the supplement of paper PMC4604168 (melanoma cell lines).
The list shows a part of the results. Many values rest on one well or one pass, so single values are uncertain.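 The apoptosis fraction was the count of cleaved-PARP antibody-stained nuclei relative to all DNA-stained nuclei, imaged in 1,536-well plates. Screening doses were set so most cells survived, and baseline and induced cleaved-PARP levels vary greatly across cell lines.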

Columns and labels:
Experiment in all cases: cleaved PARP positive nuclei fraction relative to DMSO control; melanoma cells; higher = more apoptosis
Conditions in all cases: library dose: low library concentration; 72 h
[1] = test system: WM115
[2] = test system: WM1716
[3] = test system: WM1745
[4] = test system: WM3526
[5] = test system: WM3619
[6] = test system: WM451Lu

SMILES	cleaved PARP positive nuclei fraction [1]	cleaved PARP positive nuclei fraction [2]	cleaved PARP positive nuclei fraction [3]	cleaved PARP positive nuclei fraction [4]	cleaved PARP positive nuclei fraction [5]	cleaved PARP positive nuclei fraction [6]
COc1ccc(COc2ccc(Cc3cnc(N)nc3N)cc2OC)cc1 + Cc1cc([N+](=O)[O-])ccc1NS(=O)(=O)c1cc(Cl)ccc1Cl [FH535] (first compound 1 µM, partner dose 1 µM)	160%	119%	155%	135%	67.8%	55.6%
O=C(Nc1ccccc1)c1cc([N+](=O)[O-])ccc1Cl + O=S(=O)(c1ccccc1)N(CC(F)(F)F)c1ccc(C(O)(C(F)(F)F)C(F)(F)F)cc1 [T0901317] (first compound 2 µM, partner dose 1.4 µM)	53.4%	98.2%	125%	35.4%	112%	84.7%
O=C(Nc1ccccc1)c1cc([N+](=O)[O-])ccc1Cl + Cc1cc([N+](=O)[O-])ccc1NS(=O)(=O)c1cc(Cl)ccc1Cl [FH535] (first compound 2 µM, partner dose 1 µM)	73.7%	97.3%	119%	82.8%	89.4%	77.2%
COc1cc2ncnc(Nc3ccc(Oc4ccccc4)cc3)c2cc1OC + CCCCCCCCCCCC1=C(O)C(=O)C=C(O)C1=O [Embelin] (first compound 2 µM, partner dose 1.2 µM)	68.2%	96.8%	115%	121%	132%	90.1%
COc1ccc(COc2ccc(Cc3cnc(N)nc3N)cc2OC)cc1 + Cn1cc(/C=C2\C(=O)Nc3cccnc32)c2ccccc21 [GW441756] (first compound 1 µM, partner dose 0.4 µM)	105%	117%	109%	72.2%	64.3%	53.5%
CCN(CC)CCCCNc1ncc2cc(-c3cc(OC)cc(OC)c3)c(NC(=O)NC(C)(C)C)nc2n1 + COc1cc(N2CCC(N3CCN(C)CC3)CC2)ccc1Nc1ncc(Cl)c(Nc2ccccc2S(=O)(=O)C(C)C)n1 [NVP-TAE684] (first compound 0.1 µM, partner dose 0.08 µM)	136%	157%	112%	36.1%	71.6%	441%
CN(C)S(=O)(=O)c1ccc2c(c1)/C(=C/c1cc3c([nH]1)CCCC3)C(=O)N2 + c1cc(-c2cnn3cc(-c4ccc(OCCN5CCCCC5)cc4)cnc23)ccn1 [Dorsomorphin] (first compound 0.4 µM, partner dose 0.4 µM)	260%	64.9%	144%	77%	70.8%	44.5%
COc1cc2ncnc(Nc3ccc(Oc4ccccc4)cc3)c2cc1OC + Oc1cc(-c2nc(-c3ccccc3)[nH]c2-c2ccncc2)ccc1Cl [L779450] (first compound 2 µM, partner dose 0.2 µM)	110%	36.5%	134%	39.7%	80.7%	123%
O=S(=O)(c1ccccc1)N(CC(F)(F)F)c1ccc(C(O)(C(F)(F)F)C(F)(F)F)cc1 + CC(C)CCN1c2nc(Nc3cc(F)c(O)c(F)c3)ncc2N(C)C(=O)C1C [BID1870] (first compound 1.4 µM, partner dose 0.2 µM)	176%	128%	105%	83.5%	98.6%	61.7%
COC(=O)c1sccc1S(=O)(=O)Nc1ccc(Nc2ccccc2)cc1OC + c1cc(-c2cnn3cc(-c4ccc(OCCN5CCCCC5)cc4)cnc23)ccn1 [Dorsomorphin] (first compound 1 µM, partner dose 0.4 µM)	55.3%	119%	98.8%	139%	80.4%	73.1%
O=C(O)c1ccc(-c2c[nH]c3ncc(-c4ccccc4)cc23)cc1C1CCCC1 + NCC(=O)Nc1ccc(-n2nc(C(F)(F)F)cc2-c2ccc3c(ccc4ccccc43)c2)cc1 [OSU03012] (first compound 0.16 µM, partner dose 1 µM)	85.5%	146%	79.4%	126%	120%	87.7%
O=C1NC(=O)/C(=C/c2ccc(-c3ccc(F)cc3O)o2)S1 + Cc1cc([N+](=O)[O-])ccc1NS(=O)(=O)c1cc(Cl)ccc1Cl [FH535] (first compound 1 µM, partner dose 1 µM)	250%	175%	111%	138%	86.8%	63.7%
CCc1ccc(CCOc2ccc(CC3SC(=O)NC3=O)cc2)nc1 (stereo not drawn) [pioglitazone] + O=C1NC(=O)/C(=C/c2ccc(-c3ccc(F)cc3O)o2)S1 [AS252424] (first compound 2 µM, partner dose 1 µM)	77.4%	43.2%	114%	94.2%	86%	108%
COc1cc2c(Oc3ccc4[nH]c(C)cc4c3F)ncnc2cc1OCCCN1CCCC1 [cediranib] + CCCCCCCCCCCC1=C(O)C(=O)C=C(O)C1=O [Embelin] (first compound 0.4 µM, partner dose 1.2 µM)	116%	145%	116%	122%	162%	55.2%
CN(C)S(=O)(=O)c1ccc2c(c1)/C(=C/c1cc3c([nH]1)CCCC3)C(=O)N2 + CCc1ccc(CCOc2ccc(CC3SC(=O)NC3=O)cc2)nc1 [pioglitazone] (first compound 0.4 µM, partner dose 2 µM)	281%	55.5%	122%	136%	298%	121%
COc1ccc(COc2ccc(Cc3cnc(N)nc3N)cc2OC)cc1 + Oc1nc(-c2ccc(C(F)(F)F)cc2)nc2c1CSCC2 [XAV939] (first compound 1 µM, partner dose 2 µM)	68.2%	92.2%	136%	64.5%	86.5%	54.7%
O=C(Nc1ccccc1)c1cc([N+](=O)[O-])ccc1Cl + COc1cc2ncnc(Nc3ccc(Oc4ccccc4)cc3)c2cc1OC [SrcI1] (first compound 2 µM, partner dose 2 µM)	123%	93.9%	130%	83.5%	96.1%	136%
O=C(O)c1ccc(-c2c[nH]c3ncc(-c4ccccc4)cc23)cc1C1CCCC1 + Cn1cc(/C=C2\C(=O)Nc3cccnc32)c2ccccc21 [GW441756] (first compound 0.16 µM, partner dose 0.4 µM)	437%	928%	96.2%	140%	77.3%	60.7%
COc1cc2c(Oc3ccc4[nH]c(C)cc4c3F)ncnc2cc1OCCCN1CCCC1 [cediranib] + Cc1cc([N+](=O)[O-])ccc1NS(=O)(=O)c1cc(Cl)ccc1Cl [FH535] (first compound 0.4 µM, partner dose 1 µM)	127%	140%	99.6%	66.9%	78.8%	64.7%
c1cc(-c2cnn3cc(-c4ccc(OCCN5CCCCC5)cc4)cnc23)ccn1 [Dorsomorphin] + O=c1cc(-c2cccc3c2Sc2ccccc2S3)oc(N2CCOCC2)c1 [KU55933] (first compound 0.4 µM, partner dose 1 µM)	72.5%	59.6%	119%	64.6%	78.6%	108%
O=C(O)C(=O)Nc1sc2c(c1C(=O)O)CCNC2 + c1cc(-c2cnn3cc(-c4ccc(OCCN5CCCCC5)cc4)cnc23)ccn1 [Dorsomorphin] (first compound 1.66667 µM, partner dose 0.4 µM)	177%	63.1%	120%	38.7%	52.8%	297%
NCC(=O)Nc1ccc(-n2nc(C(F)(F)F)cc2-c2ccc3c(ccc4ccccc43)c2)cc1 + Oc1nc(-c2ccc(C(F)(F)F)cc2)nc2c1CSCC2 [XAV939] (first compound 1 µM, partner dose 2 µM)	47.2%	136%	95.3%	107%	100%	787%
Oc1nc(-c2ccc(C(F)(F)F)cc2)nc2c1CSCC2 + c1cc(-c2cnn3cc(-c4ccc(OCCN5CCCCC5)cc4)cnc23)ccn1 [Dorsomorphin] (first compound 2 µM, partner dose 0.4 µM)	151%	130%	263%	68.1%	79.8%	54.6%
COc1ccc2c(c1)CCC1C2CCC2(C)C(NCCCCCCN3C(=O)C=CC3=O)CCC12 (stereo not drawn) + CCCCCCCCCCCC1=C(O)C(=O)C=C(O)C1=O [Embelin] (first compound 0.4 µM, partner dose 1.2 µM)	119%	52.1%	94.3%	66.8%	62.3%	63.4%
CN(C)S(=O)(=O)c1ccc2c(c1)/C(=C/c1cc3c([nH]1)CCCC3)C(=O)N2 + CCCCCCCCCCCC1=C(O)C(=O)C=C(O)C1=O [Embelin] (first compound 0.4 µM, partner dose 1.2 µM)	274%	106%	105%	54.9%	77.3%	60.1%
CN(NC(=O)CC(=O)NN(C)C(=S)c1ccccc1)C(=S)c1ccccc1 + O=C(Nc1ccccc1)c1cc([N+](=O)[O-])ccc1Cl [GW9662] (first compound 0.006 µM, partner dose 2 µM)	81.9%	147%	175%	31.4%	256%	22.3%
N#Cc1c(O)c2c(-c3ccc(-c4ccccc4O)cc3)csc2[nH]c1=O + CCN(CC)CCCCNc1ncc2cc(-c3cc(OC)cc(OC)c3)c(NC(=O)NC(C)(C)C)nc2n1 [PD173074] (first compound 2 µM, partner dose 0.1 µM)	96.8%	85.6%	98.9%	107%	79%	105%
COc1ccc(-c2ccc3c(N4CCOCC4)nc(N4C[C@@H](C)O[C@@H](C)C4)nc3n2)cc1CO + Cc1cc([N+](=O)[O-])ccc1NS(=O)(=O)c1cc(Cl)ccc1Cl [FH535] (first compound 0.02 µM, partner dose 1 µM)	96.4%	86%	108%	47.7%	118%	82.5%

2 neighbouring entries from above, quoted:
SMILES	cleaved PARP positive nuclei fraction [1]	cleaved PARP positive nuclei fraction [2]	cleaved PARP positive nuclei fraction [3]	cleaved PARP positive nuclei fraction [4]	cleaved PARP positive nuclei fraction [5]	cleaved PARP positive nuclei fraction [6]
COC(=O)c1sccc1S(=O)(=O)Nc1ccc(Nc2ccccc2)cc1OC + c1cc(-c2cnn3cc(-c4ccc(OCCN5CCCCC5)cc4)cnc23)ccn1 [Dorsomorphin] (first compound 1 µM, partner dose 0.4 µM)	55.3%	119%	98.8%	139%	80.4%	73.1%
O=C(O)c1ccc(-c2c[nH]c3ncc(-c4ccccc4)cc23)cc1C1CCCC1 + NCC(=O)Nc1ccc(-n2nc(C(F)(F)F)cc2-c2ccc3c(ccc4ccccc43)c2)cc1 [OSU03012] (first compound 0.16 µM, partner dose 1 µM)	85.5%	146%	79.4%	126%	120%	87.7%
